Results published in patent US8921366B2, “Substituted triazolo-pyridazine derivatives” (Concert Pharmaceuticals, Inc., priority 2008, dated 2014).
Some entries share one result that the patent states for a list of compounds.

What was measured:
[1] = Metabolic stability in rat liver microsomes; format: in vitro ADME; settings: 30 minutes incubation
Method: (§1) Human liver microsomes (20 mg/mL) and rat liver microsomes (20 mg/mL) were obtained from Xenotech, LLC (Lenexa, Kans.). β-nicotinamide adenine dinucleotide phosphate, reduced form (NADPH), magnesium chloride (MgCl2), and dimethyl sulfoxide (DMSO) were purchased from Sigma-Aldrich. 7.5 mM stock solutions of test compounds (L-838417, Compound 101, Compound 103, Compound 104 and Compound 105) were prepared in DMSO. The 7.5 mM stock solutions were diluted to 12.5 μM in acetonitrile (ACN). The 20 mg/mL […] were diluted to […] in 0.1 M potassium phosphate buffer, pH 7.4, containing 3 mM MgCl2. The diluted microsomes (375 μL) were added to wells of a 96-well deep-well polypropylene plate in triplicate. 10 μL of the 12.5 μM test compound was added to the microsomes and the mixture was pre-warmed for 10 minutes. Reactions were initiated by addition of 125 μL pre-warmed NADPH solution. The final reaction volume is 0.5 mL and contained 0.5 mg/mL human liver microsomes, 0.25 μM test compound, and 2 mM NADPH in 0.1 M potassium phosphate buffer, pH 7.4, and 3 mM MgCl2. The reaction mixtures are incubated at 37° C., and 50 μL aliquots were removed at 0, 5, 10, 20, and 30 minutes and added to shallow-well 96-well plates which contained 50 μL of ice-cold ACN with internal standard to stop the reactions. The plates were stored at 4° C. for 20 minutes after which 100 μL of water was added to the wells of the plate before centrifugation to pellet precipitated proteins. Supernatants were transferred to another 96-well plate and analyzed for amounts of parent remaining by LC-MS/MS using an Applied Bio-systems API 4000 mass spectrometer. 7-ethoxycoumarin (1 μM) was used as a positive control. The in vitro t1/2s for test compounds were calculated from the slopes of the linear regression of % parent remaining (ln) vs incubation time relationship, using the formula: in vitro t1/2=0.693/k, where k=−[slope of linear regression of % parent remaining(ln) vs incubation time] Data analysis is performed using Microsoft Excel Software.

[2] = Metabolic stability in human liver microsomes; format: in vitro ADME; settings: 30 minutes incubation, 0.25 μM test compound, 37° C.
Method: as §1

[2H]C([2H])([2H])C(c1cc2nnc(-c3cc(F)ccc3F)n2nc1OCc1ncnn1C)(C([2H])([2H])[2H])C([2H])([2H])[2H] [Compound 103, 7-(tert-Butyl-d9)-3-(2,5-difluorophenyl)-6-((1-methyl-1H-1,2,4-triazol-5-yl)methoxy)-[1,2,4]triazolo[4,3-b]pyridazine]
parent compound remained intact [1]: More than 80%
parent compound remained intact [2]: more than 80%

[2H]C([2H])([2H])n1ncnc1COc1nn2c(-c3cc(F)ccc3F)nnc2cc1C(C([2H])([2H])[2H])(C([2H])([2H])[2H])C([2H])([2H])[2H] [Compound 104, 7-(tert-Butyl-d9)-3-(2,5-difluorophenyl)-6-((1-(methyl-d3)-1H-1,2,4-triazol-5-yl)-methoxy)-[1,2,4]triazolo[4,3-b]pyridazine]
parent compound remained intact [1]: More than 80%
parent compound remained intact [2]: more than 80%

[2H]C([2H])(Oc1nn2c(-c3cc(F)ccc3F)nnc2cc1C(C([2H])([2H])[2H])(C([2H])([2H])[2H])C([2H])([2H])[2H])c1ncnn1C([2H])([2H])[2H] [Compound 105, 7-(tert-Butyl-d9)-3-(2,5-difluorophenyl)-6-((1-(methyl-d3)-1H-1,2,4-triazol-5-yl)-1,1-d2-methoxy)-[1,2,4]triazolo[4,3-b]pyridazine]
parent compound remained intact [1]: More than 80%
parent compound remained intact [2]: more than 80%

[2H]C([2H])(Oc1nn2c(-c3cc(F)ccc3F)nnc2cc1C(C)(C)C)c1ncnn1C([2H])([2H])[2H] [Compound 101, 7-tert-Butyl-3-(2,5-difluorophenyl)-6-((1-(methyl-d3)-1H-1,2,4-triazol-5-yl)-1,1-d2-methoxy)-[1,2,4]triazolo[4,3-b]pyridazine]
parent compound remained intact [2]: more than 80%
